Data published in the supplement of paper PMC11006884.
The list shows a part of the results, in another mix than the full data. The data scatter; read single values as rough.

Chains of the proteins cited; added tags and fusions are not shown. Lines headed by an entry give the natural chain unless they say otherwise; changes in a name come on top.
UniProt Q9H3U1: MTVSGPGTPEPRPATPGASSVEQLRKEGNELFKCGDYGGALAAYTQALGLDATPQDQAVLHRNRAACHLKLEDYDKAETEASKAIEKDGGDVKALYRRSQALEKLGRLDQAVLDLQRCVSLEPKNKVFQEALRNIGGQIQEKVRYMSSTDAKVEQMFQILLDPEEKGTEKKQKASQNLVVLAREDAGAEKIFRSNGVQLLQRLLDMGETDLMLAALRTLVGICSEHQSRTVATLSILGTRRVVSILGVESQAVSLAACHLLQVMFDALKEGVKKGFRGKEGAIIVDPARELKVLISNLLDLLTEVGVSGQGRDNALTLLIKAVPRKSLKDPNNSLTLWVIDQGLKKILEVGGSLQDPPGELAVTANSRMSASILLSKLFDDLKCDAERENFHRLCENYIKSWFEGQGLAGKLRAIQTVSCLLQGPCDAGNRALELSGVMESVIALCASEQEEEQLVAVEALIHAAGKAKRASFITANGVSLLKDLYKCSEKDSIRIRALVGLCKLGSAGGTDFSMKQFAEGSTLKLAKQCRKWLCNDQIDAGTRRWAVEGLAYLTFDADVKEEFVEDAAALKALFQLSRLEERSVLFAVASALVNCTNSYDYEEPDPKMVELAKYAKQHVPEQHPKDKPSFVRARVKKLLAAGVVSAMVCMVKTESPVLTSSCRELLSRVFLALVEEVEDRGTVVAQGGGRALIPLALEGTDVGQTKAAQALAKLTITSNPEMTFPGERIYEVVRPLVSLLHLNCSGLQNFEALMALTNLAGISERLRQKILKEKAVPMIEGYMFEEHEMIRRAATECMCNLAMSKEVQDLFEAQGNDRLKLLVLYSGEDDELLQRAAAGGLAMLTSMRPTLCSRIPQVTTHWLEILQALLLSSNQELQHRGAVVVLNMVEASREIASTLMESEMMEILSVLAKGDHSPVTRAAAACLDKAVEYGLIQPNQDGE
UniProt Q9H2Y7: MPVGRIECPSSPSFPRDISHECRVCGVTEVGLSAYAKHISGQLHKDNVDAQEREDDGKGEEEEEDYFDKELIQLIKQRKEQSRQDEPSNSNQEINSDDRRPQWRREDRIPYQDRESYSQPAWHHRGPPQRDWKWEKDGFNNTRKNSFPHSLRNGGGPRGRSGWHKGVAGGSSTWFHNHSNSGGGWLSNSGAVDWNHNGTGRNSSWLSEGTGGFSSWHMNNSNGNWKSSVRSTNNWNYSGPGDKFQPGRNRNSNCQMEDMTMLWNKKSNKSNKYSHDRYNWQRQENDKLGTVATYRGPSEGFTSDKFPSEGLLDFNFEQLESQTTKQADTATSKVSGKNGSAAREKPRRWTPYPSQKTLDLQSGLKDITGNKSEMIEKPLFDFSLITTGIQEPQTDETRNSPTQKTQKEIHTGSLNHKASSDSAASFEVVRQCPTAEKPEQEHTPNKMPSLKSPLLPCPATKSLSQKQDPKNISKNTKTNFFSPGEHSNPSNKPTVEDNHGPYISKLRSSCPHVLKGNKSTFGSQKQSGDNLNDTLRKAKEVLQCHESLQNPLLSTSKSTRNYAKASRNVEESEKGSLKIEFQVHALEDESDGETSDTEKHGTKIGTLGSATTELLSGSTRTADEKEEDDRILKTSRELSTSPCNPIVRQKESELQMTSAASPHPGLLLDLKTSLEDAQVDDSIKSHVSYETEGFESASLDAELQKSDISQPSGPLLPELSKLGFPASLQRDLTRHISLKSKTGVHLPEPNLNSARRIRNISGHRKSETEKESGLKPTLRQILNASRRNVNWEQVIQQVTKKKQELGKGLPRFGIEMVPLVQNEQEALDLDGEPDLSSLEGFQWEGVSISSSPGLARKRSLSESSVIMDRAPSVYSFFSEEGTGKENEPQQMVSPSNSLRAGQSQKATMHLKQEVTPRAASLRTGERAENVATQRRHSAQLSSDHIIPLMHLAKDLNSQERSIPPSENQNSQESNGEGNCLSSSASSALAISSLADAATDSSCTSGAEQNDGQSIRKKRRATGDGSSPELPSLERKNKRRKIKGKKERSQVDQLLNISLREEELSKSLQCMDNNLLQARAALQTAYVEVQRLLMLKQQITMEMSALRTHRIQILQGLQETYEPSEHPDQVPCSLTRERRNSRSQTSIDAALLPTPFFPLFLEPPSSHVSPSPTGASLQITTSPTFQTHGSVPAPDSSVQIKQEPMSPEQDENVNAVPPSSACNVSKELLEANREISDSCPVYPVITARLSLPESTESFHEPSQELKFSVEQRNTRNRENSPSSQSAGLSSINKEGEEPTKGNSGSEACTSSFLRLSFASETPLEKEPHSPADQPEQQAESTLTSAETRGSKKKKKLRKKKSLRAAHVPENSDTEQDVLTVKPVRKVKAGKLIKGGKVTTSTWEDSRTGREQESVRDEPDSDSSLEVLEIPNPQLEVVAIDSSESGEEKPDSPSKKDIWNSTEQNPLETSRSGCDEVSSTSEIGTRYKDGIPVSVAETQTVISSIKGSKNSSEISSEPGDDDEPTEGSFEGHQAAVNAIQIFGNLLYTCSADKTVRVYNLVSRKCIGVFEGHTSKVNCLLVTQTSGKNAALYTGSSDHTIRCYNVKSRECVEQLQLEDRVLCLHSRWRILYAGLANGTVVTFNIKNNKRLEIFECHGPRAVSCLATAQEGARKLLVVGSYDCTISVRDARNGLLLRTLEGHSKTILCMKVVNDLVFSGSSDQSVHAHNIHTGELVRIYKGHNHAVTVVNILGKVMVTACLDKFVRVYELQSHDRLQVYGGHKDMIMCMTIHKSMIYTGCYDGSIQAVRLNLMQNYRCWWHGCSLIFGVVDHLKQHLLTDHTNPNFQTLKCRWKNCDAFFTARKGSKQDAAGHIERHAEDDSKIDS
UniProt Q9NS86: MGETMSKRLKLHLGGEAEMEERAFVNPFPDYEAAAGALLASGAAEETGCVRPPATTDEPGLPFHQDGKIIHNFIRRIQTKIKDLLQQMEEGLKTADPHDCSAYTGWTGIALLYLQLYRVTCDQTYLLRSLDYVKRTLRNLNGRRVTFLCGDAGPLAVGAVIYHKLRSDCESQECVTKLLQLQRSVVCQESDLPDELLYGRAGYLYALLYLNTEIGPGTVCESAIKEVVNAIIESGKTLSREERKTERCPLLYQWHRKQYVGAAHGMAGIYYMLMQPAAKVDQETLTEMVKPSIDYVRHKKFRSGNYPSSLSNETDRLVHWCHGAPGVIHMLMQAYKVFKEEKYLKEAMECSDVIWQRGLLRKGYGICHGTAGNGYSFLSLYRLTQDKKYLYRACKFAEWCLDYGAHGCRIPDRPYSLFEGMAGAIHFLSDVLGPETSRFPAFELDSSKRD
UniProt Q9HAV4: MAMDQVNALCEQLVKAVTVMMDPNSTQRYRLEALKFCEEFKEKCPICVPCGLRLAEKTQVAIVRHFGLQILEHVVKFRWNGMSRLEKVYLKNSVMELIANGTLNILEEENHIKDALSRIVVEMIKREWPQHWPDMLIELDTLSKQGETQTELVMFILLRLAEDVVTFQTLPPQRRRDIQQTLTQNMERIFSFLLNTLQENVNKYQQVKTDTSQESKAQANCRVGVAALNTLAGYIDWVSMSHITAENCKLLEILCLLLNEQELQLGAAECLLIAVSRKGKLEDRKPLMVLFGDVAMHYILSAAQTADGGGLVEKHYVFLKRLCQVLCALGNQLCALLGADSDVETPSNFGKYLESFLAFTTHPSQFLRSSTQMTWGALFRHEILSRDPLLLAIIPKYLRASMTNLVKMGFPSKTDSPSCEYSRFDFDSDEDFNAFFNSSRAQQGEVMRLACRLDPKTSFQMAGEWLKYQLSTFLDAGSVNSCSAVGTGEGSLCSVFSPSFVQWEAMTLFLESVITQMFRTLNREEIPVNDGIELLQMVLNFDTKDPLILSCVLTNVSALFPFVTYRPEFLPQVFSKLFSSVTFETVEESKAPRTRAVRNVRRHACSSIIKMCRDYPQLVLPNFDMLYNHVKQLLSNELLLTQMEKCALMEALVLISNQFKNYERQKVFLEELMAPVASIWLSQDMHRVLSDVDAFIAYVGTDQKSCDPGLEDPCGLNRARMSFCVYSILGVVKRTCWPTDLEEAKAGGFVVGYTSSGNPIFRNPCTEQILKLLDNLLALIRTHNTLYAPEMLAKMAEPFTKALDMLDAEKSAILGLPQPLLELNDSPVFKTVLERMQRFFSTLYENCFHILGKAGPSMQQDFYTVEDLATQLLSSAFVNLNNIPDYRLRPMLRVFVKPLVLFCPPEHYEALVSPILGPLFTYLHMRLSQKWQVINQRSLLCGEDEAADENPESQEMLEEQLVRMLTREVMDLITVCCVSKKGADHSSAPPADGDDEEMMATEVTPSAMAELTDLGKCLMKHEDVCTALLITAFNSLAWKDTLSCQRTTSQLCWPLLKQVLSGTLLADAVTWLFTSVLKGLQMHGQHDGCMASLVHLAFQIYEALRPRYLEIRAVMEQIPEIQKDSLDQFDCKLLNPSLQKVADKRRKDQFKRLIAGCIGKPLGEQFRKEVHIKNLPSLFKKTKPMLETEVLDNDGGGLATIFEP
UniProt Q9NQX3: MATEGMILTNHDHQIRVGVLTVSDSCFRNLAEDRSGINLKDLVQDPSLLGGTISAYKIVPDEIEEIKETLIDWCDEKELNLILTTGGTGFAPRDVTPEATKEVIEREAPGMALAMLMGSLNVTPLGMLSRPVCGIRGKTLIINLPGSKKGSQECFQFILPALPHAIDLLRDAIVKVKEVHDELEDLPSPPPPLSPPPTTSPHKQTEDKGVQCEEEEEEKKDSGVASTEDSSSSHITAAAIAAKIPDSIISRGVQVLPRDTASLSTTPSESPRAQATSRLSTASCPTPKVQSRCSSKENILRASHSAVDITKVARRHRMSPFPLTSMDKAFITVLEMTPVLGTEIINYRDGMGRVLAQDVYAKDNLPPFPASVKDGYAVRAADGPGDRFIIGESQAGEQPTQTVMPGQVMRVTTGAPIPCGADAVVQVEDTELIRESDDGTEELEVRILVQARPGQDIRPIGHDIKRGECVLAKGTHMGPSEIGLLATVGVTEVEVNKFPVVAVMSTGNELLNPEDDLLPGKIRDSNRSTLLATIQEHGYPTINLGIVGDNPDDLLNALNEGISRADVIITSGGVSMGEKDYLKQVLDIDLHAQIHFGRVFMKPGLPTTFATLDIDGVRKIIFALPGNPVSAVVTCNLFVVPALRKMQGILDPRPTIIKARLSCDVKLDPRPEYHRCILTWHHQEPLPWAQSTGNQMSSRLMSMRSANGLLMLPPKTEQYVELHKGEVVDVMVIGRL
UniProt Q9HAU5: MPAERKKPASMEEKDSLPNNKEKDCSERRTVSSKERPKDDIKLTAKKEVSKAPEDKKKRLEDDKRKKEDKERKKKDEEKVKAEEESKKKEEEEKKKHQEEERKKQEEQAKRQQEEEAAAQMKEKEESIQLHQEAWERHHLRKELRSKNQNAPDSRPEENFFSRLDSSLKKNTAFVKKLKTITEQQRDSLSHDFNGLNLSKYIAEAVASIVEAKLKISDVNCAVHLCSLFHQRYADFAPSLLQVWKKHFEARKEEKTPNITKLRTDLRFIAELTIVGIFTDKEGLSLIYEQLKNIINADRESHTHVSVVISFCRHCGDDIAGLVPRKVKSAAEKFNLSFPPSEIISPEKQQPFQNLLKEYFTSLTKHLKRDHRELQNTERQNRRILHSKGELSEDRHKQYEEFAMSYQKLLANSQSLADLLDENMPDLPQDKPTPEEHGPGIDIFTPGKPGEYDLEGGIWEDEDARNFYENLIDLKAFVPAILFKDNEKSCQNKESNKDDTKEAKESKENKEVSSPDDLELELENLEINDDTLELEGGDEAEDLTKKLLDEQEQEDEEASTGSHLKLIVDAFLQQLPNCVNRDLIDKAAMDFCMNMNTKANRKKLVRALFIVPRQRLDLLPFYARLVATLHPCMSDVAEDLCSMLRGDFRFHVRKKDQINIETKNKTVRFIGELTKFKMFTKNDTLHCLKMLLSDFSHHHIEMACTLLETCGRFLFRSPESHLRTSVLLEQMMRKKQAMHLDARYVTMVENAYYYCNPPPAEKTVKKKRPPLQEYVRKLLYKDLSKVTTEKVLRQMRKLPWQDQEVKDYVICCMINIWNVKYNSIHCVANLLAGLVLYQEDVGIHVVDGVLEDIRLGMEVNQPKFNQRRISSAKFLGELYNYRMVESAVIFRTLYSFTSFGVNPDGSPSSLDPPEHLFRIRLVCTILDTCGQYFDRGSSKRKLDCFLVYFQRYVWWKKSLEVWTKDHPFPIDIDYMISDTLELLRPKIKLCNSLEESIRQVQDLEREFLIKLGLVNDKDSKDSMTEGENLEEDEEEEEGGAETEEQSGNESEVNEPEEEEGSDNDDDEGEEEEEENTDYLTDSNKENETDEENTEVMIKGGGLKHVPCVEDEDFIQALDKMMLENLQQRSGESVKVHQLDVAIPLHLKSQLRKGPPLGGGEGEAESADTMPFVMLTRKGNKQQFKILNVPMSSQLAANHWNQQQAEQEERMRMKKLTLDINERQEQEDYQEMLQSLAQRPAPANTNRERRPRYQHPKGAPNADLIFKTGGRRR

compound: COC(=O)/C=C/c1ccccc1 [methyl cinnamate]; assay: log2 ratio of iodoacetamide-alkyne labeling of the cysteine site, DMSO over compound (competition); higher = stronger covalent engagement of the cysteine by the compound, active = 1 or more; conditions: 500 µM; treatment time 1 h; system: HEK293T cell lysate
Outline: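 The log2 competition ratio per cysteine is defined as mean reporter intensity in control channels over mean reporter intensity in compound channels. Lysate from HEK293T cells (2 mg/mL) received electrophile (500 µM) or vehicle for 1 h at ambient temperature, followed by iodoacetamide alkyne for 1 h. Samples were clicked to sCIP-TMT reagents, pooled, trypsin-digested overnight at 37 °C, streptavidin-enriched, acid-eluted and run on Orbitrap Eclipse LC-MS/MS with FAIMS, with quantification in FragPipe. Three replicates with duplicate channels were used, and any cysteine quantified in only one replicate was excluded.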

log2 ratio of iodoacetamide-alkyne labeling, inactive:
UNC45A C927 (UniProt Q9H3U1) 0.176
ISYNA1 C380 (UniProt Q9NPH2) 0.0449
ZNF106 C1069 (UniProt Q9H2Y7) 0.194
XPNPEP1 C502 (UniProt Q9NQW7) -0.0301
UniProt Q9HC36_C290 0.312
C17orf75 C288 (UniProt Q9HAS0) 0.213
DDX21 C378 (UniProt Q9NR30) 0.0722
ANLN C309 (UniProt Q9NQW6) 0.18
ISYNA1 C541 (UniProt Q9NPH2) 0.371
LANCL2 C169 (UniProt Q9NS86) 0.267
SARS2 C64 (UniProt Q9NP81) 0.0544
UniProt Q9H974_C324 0.265
C8orf33 C117 (UniProt Q9H7E9) 0.157
XPO5 C1157 (UniProt Q9HAV4) 0.112
GPHN C419 (UniProt Q9NQX3) 0.0575
EXOSC4 C74 (UniProt Q9NPD3) 0.281
PNN C439 (UniProt Q9H307) 0.00011
FARSB C418 (UniProt Q9NSD9) -0.242
CACYBP C173 (UniProt Q9HB71) 0.374
MVB12B C267 (UniProt Q9H7P6) -0.0161
UPF2 C1107 (UniProt Q9HAU5) 0.00534

Two consecutive records out of the list so far, quoted:
log2 ratio of iodoacetamide-alkyne labeling, inactive:
DDX21 C378 (UniProt Q9NR30) 0.0722
ANLN C309 (UniProt Q9NQW6) 0.18
